No constants are given. Whether binding was seen depends on the method and setting. Binding seen in cells or lysates may run through a third protein. These calls come from enrichment with a bait or labelling near it, and not all partners need be listed. A no says only that the protein was not detected with the bait.
Assays:
Experiment in all cases: affinity purification with mass spectrometry; GST-tagged baits on glutathione resin; soluble adult mouse forebrain extract in 50 mM HEPES pH 7.4, 100 mM NaCl, 2 mM EDTA, 1 % Triton X-100, 4 °C; Colloidal Blue-stained bands cut out, LC-MS/MS; only the target purified
[1] = target: GST-tagged SCN2B ectodomain (human) (UniProt O60939)
[2] = target: GST-tagged E1 domain of APP (UniProt P05067)
[3] = target: GST-tagged E2 domain of APP (UniProt P05067)

By UniProt entry, the sequences of proteins in these tests, tags left out. Chains listed by the source or under a name are the forms on record and can include a tag or linker. Residues count along the entry.
UniProt O60939, residues 30-157: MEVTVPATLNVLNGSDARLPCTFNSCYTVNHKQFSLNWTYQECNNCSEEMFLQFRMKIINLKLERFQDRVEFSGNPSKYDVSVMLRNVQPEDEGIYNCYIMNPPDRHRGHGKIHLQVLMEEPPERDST
GST-tagged E1 domain of APP (P05067, residues 28-189): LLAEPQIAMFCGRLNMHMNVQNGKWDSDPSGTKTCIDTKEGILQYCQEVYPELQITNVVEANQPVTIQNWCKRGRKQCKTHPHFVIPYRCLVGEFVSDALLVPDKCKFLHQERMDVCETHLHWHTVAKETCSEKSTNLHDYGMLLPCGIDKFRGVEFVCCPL
GST-tagged E2 domain of APP (P05067, residues 374-565): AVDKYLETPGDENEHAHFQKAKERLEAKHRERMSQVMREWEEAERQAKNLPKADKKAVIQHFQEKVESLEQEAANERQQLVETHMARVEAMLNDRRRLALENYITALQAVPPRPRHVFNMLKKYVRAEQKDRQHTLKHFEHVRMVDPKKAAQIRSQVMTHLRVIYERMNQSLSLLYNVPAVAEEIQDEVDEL
UniProt P46096: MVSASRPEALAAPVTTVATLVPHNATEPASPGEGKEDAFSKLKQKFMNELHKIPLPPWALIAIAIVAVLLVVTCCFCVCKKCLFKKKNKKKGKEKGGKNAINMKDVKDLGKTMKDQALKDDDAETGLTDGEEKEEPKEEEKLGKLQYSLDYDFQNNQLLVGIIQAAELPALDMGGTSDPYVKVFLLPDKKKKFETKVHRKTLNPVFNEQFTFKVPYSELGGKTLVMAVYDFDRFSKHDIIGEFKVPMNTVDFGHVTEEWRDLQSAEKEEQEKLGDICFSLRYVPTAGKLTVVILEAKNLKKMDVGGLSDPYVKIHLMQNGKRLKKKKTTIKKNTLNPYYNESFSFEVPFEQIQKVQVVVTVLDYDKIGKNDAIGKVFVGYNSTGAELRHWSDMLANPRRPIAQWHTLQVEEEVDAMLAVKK
UniProt P46097: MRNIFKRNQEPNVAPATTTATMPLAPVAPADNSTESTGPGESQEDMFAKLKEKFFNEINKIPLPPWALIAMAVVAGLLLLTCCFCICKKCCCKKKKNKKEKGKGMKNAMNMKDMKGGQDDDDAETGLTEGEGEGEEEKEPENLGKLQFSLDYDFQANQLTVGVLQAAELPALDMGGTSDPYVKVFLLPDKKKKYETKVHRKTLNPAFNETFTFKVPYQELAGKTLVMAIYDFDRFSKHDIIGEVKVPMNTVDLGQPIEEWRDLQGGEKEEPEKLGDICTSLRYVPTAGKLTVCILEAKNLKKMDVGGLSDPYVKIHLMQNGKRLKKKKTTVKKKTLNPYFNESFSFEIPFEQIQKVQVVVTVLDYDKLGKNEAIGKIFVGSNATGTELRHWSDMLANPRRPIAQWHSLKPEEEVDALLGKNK

Measured: binding

Synaptotagmin-1 (endogenous, adult mouse forebrain) (from UniProt P46096 1-421)
no binding: all assays above

Synaptotagmin-2 (endogenous, adult mouse forebrain) (from UniProt P46097 1-422)
no binding: all assays above
